Assay: Odor descriptors given by a panel of expert perfumers

Row | SMILES | Odor Descriptor (Table 9) | Odor Descriptor (Table 11) | Odor Descriptor (Table 13) | Odor Descriptor 1 (Table 15) | Odor Descriptor 2 (Table 15) | Odor Descriptor 1 (Table 17) | Odor Descriptor 2 (Table 17) | Odor Descriptor 1 (Table 19) | Odor Descriptor 2 (Table 19)
1 | C=CC(C)(O)CCC=C(C)CC (mixture of isomers) [ETHYL LINALOOL] | CITRUS | CITRUS | CITRUS | CITRUS | FLORAL | MUGUET | CITRUS | CITRUS | FLORAL
2 | CC1=CCC(C=CC(C)C(C)O)C1(C)C (stereo in doubt) [EBANOL] | SANDALWOOD | SANDALWOOD | SANDALWOOD | – | – | – | – | – | –
3 | CCCCCCCCCCC=O [ALDEHYDE C11] | – | – | CITRUS | – | – | – | – | – | –
4 | CCCCCCCCCCCC=O [ALDEHYDE C12 (DODECANAL), DODECANAL] | – | – | – | ALDEHYDIC | FATTY/GREASY | ALDEHYDIC | FATTY/GREASY | ALDEHYDIC | FATTY/GREASY
5 | CCCCCCCC=O [ALDEHYDE C 8 (OCTANAL), OCTANAL] | – | – | – | ALDEHYDIC | CITRUS | ALDEHYDIC | CITRUS | ALDEHYDIC | CITRUS
6 | CCCCCCCCCC=O [ALDEHYDE C 10 (DECANAL), DECANAL] | – | – | – | ALDEHYDIC | ORANGE | ALDEHYDIC | ORANGE | ALDEHYDIC | CITRUS
7 | C=CCOC(=O)CCC1CCCCC1 [ALLYL CYCLOHXYL PROPIONATE, ALLYL CYCLOHEXYL PROPIONATE] | FRUITY | FRUITY | FRUITY | – | – | – | – | – | –
8 | CCOC(=O)CC1(C)OCCO1 [APPLINAL] | APPLE | FRUITY | FRUITY | – | – | – | – | – | –
9 | CCCCC/C=C\CCC=O [CIS 4 DECENAL] | – | – | – | ALDEHYDIC | CARDAMOM | ALDEHYDIC | CARDAMOM | ALDEHYDIC | CARDAMOM
10 | CC/C=C\CCOC(C)=O [CIS-3-HEXENYL ACETATE] | GREEN | GREEN | GREEN | GRASS | FRUITY | GRASS | FRUITY | GRASS | FRUITY
11 | CC/C=C\CCOC(=O)c1ccccc1O [CIS-3-HEXENYL SALICYLATE] | GREEN | FLORAL | FLORAL | GRASS | SALICYLATE | GRASS | SALICYLATE | GRASS | SALICYLATE
12 | CC(C)=CCCC(C)=CC=O [CITRAL] | – | CITRUS | CITRUS | – | – | – | – | – | –
13 | CC(C)=CCCC(C)CC=O (stereo not drawn) [CITRONELLAL] | – | CITRUS | CITRUS | CITRUS | CITRONELLA | CITRUS | CITRONELLA | CITRUS | CITRONELLA
14 | CC(C)=CCCC(C)CCO (stereo not drawn) [CITRONELLOL] | – | FLORAL | FLORAL | – | – | – | – | – | –
15 | CC(C)=CCCC(C)CC#N (stereo not drawn) [CITRONELLYL NITRILE] | CITRUS | CITRUS | CITRUS | CITRUS | NITRILE | CITRUS | NITRILE | CITRUS | NITRILE
16 | C=CC(C)CCCC(C)(C)O (stereo not drawn) [DIHYDROMYRCENOL] | CITRUS | CITRUS | CITRUS | CITRUS | METALLIC | CITRUS | METALLIC | CITRUS | METALLIC
17 | CCOC(=O)CC(C)=O [ETHYL ACETOACETATE] | APPLE | FRUITY | FRUITY | – | – | – | – | – | –
18 | CCOC(=O)C(C)CC (stereo not drawn) [Ethyl 2-methylbutyrate] | APPLE | FRUITY | FRUITY | – | – | – | – | – | –
19 | CCC(C)C(=O)N(C)c1ccccc1 (stereo not drawn) [GARDAMIDE] | CITRUS | CITRUS | CITRUS | CITRUS | WOODY | CITRUS | WOODY | CITRUS | WOODY

Row | SMILES | Odor Descriptor (Table 9) | Odor Descriptor (Table 11) | Odor Descriptor (Table 13) | Odor Descriptor 1 (Table 15) | Odor Descriptor 2 (Table 15) | Odor Descriptor 1 (Table 17) | Odor Descriptor 2 (Table 17) | Odor Descriptor 1 (Table 19) | Odor Descriptor 2 (Table 19)
20 | CCCCCCOC(C)=O [HEXYL ACETATE] | FRUITY | FRUITY | FRUITY | – | – | – | – | – | –
21 | CCCCCCCCCCCC#N [LAURONITRILE] | – | – | CITRUS | – | – | – | – | – | –
22 | CC1=CC(C)C(C=O)CC1 (stereo not drawn) [LIGUSTRAL] | – | GREEN | GREEN | GREEN | LEAF | GREEN | LEAF | GREEN | LEAF
23 | C=CC(C)(O)CCC=C(C)C (stereo not drawn) [LINALOOL, linalool] | – | – | – | LINALOOL | – | LINALOOL | – | LINALOOL | –
24 | CCCCCCCCCC=CC=O [MANDARIN ALDEHYDE] | – | – | CITRUS | – | – | – | – | – | –
25 | CC(CC=O)CCc1ccccc1 (stereo not drawn) [MEFRANAL] | CITRUS | CITRUS | CITRUS | ALDEHYDIC | CITRUS | ALDEHYDIC | CITRUS | ALDEHYDIC | CITRUS
26 | CC(C)=CCCC(C)C=O (stereo not drawn) [MELONAL] | – | – | – | GREEN | ALDEHYDIC | GREEN | ALDEHYDIC | GREEN | ALDEHYDIC
27 | CCCCCC1C(=O)CCC1CC(=O)OC (stereo not drawn) [METHYL DIHYDRO JASMONATE] | FLORAL | FLORAL | FLORAL | – | – | – | – | FLORAL | –
28 | CCCCCCC#CC(=O)OC [METHYL OCTINE CARBONATE] | – | – | – | GREEN | VIOLET | GREEN | VIOLET | GREEN | VIOLET
29 | CCC(CC)C(=O)N(C)c1cccc(C)c1 [PARADISAMIDE] | – | – | CITRUS | CITRUS | FRUITY | CITRUS | FRUITY | CITRUS | FRUITY
30 | CC1CC(C)(c2ccccc2)CO1 (stereo not drawn) [RHUBAFURAN] | – | CITRUS/GREEN | CITRUS | GREEN | GRAPEFRUIT | GREEN | GRAPEFRUIT | GREEN | GRAPEFRUIT
31 | CC(C)CC1CCCC(C)(O)C1 (stereo not drawn) [ROSSITOL] | CITRUS | CITRUS | CITRUS | NUGUET | CITRUS | CITRUS | FLORAL | MUGUET | CITRUS
32 | CC(=O)OC(C)c1ccccc1 (stereo not drawn) [STRALLYL ACETATE, STYRALLYL ACETATE] | – | – | – | GREEN | FRUITY | GREEN | FRUITY | GREEN | FRUITY
33 | CCC(C)(O)CCCC(C)C (stereo not drawn) [TETRAHYDROLINALOOL] | FLORAL | FLORAL | FLORAL | – | – | – | – | – | –
34 | CC/C=C\CC/C=C/C=O [TRANS 2 CIS 6 NONADENAL, TRANS 2 CIS 6 NONADIENAL] | – | – | – | GREEN | CUCUMBER | GREEN | CUCUMBER | GREEN | CUCUMBER
35 | CC/C=C\CC/C=C/CO [TRANS 2 CIS 6 NONADENOL, TRANS 2 CIS 6 NONADIENOL] | – | – | – | GREEN | CUCUMBER | GREEN | CUCUMBER | GREEN | CUCUMBER
36 | CCCCCCCCCCC=CC#N [TRIDECEN 2 NITRILE] | – | – | – | NITRILE | CITRUS | NITRILE | CITRUS | NITRILE | CITRUS
37 | CCC=C(C)C(O)CCCCC (stereo not drawn) [UNDECAVERTOL, 4-Methyl-3-decen-5-ol] | – | – | – | GREEN | FRUITY | GREEN | FRUITY | GREEN | FRUITY
38 | C=C(C)[C@H]1CC=C(C)CC1 [d-LIMONINE, d-1-Methyl-4-isopropenyl-1-cyclohexene] | CITRUS | CITRUS | CITRUS | CITRUS | ORANGE | CITRUS | ORANGE | CITRUS | ORANGE

Reference: patent US20100087351A1, “Perfumes for Linear Citrus Release in Rinse-Off Systems” (Quest International Services B.V., priority 2007, published 2010)
